{"source": "PubChem BioAssay AID624297", "about": "(National Center for Advancing Translational Sciences (NCATS), 2012)", "note": "The campaign covered roughly 340,000 compounds. About 6,200 (1.8%) were called active. Inconclusive results, whose numbers are uncertain, are shown with a selection of clear calls. Calls come from the whole dose curve; as a rule, active = well fitted activation curve with a large enough effect; inconclusive = small, poorly fitted or top-dose-only effect; inactive = no such curve, though single readings can be large or run the other way. A potency beside an inconclusive call is a rough fit, not a confirmed value. Potency is the fitted concentration of half-maximal effect.", "data": [{"test": "A quantitative high throughput screen for small molecules that induce DNA re-replication in SW480 colon adenocarcinoma cells; note: nearly all actives have a fitted effect of over 55% in size; for re-replication activation: % of control where 0% means no effect.", "settings": "Hoechst DNA content imaging, 48 h; re-replication activation: at 46.1 µM (top of the series) unless noted", "summary_of_the_method": "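DNA re-replication was detected as more nuclei of elevated Hoechst intensity after 48 hr exposure to compound (23 nL pinned per well of 250 cells).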", "values": [{"smiles": "Cc1ccccc1-c1nc(CS(=O)CC(=O)NC2CCCCC2)c(C)o1", "note": "(stereo not given)", "Potency": "inconclusive: 4.11 µM [activator, full curve, poor fit]"}, {"smiles": "COc1ccc(S(=O)(=O)NCC2CCCN(Cc3ccc(O)cc3)C2)cc1", "note": "(stereo not given)", "Potency": "inconclusive: 29.1 µM [activator, single point]"}, {"smiles": "COc1cc(CNCCSc2nnnn2C)cc(Br)c1OCc1ccc(F)cc1", "Potency": "inconclusive: 14.6 µM [activator, partial curve, poor fit]"}, {"smiles": "CC(C)Cn1c(SCC(=O)Nc2ncccn2)nc2ccccc21", "Potency": "inconclusive: 2.06 µM [activator, partial curve, poor fit]"}, {"smiles": "CCN(CC(=O)NCc1ccc(F)cc1)C(=O)/C=C/c1ccc(S(=O)(=O)N(CC)CC)cc1", "Potency": "inconclusive: 16.4 µM [activator, single point]"}, {"smiles": "COc1cccc(-c2ccc(NC(=O)C3CCCN(Cc4cnc(C)n4C)C3)cc2)c1", "note": "(stereo not given)", "Potency": "inactive"}, {"smiles": "Cc1nnc(NC(=O)c2ccc3ccccc3c2)o1", "Potency": "inconclusive: 31.6 µM [activator, single point]"}, {"smiles": "CNC(=O)c1cc2c(=O)n3cccc(C)c3nc2n(C(C)C)c1=N", "Potency": "inconclusive: 3.26 µM [activator, full curve]"}, {"smiles": "COc1ccc(Cl)cc1C(=O)NCCCSc1ccccc1", "Potency": "inactive"}, {"smiles": "CCO[C@@H]1OC(C(=O)Nc2ccccc2)=C[C@H](c2ccc(Br)cc2)[C@H]1CCCO", "Potency": "inconclusive: 32.6 µM [activator, partial curve, poor fit]"}, {"smiles": "N#CCCN(C(=O)CCl)c1cccc(Cl)c1", "Potency": "active: 2.59 µM"}, {"smiles": "O=C(Nc1ccccc1)c1c(F)cccc1F", "Potency": "inconclusive: 20.6 µM [activator, single point]"}, {"smiles": "Cc1cccc(NC(=O)NNC(=O)c2ccccn2)c1", "Potency": "inactive"}, {"smiles": "COc1ccc(Cl)cc1S(=O)(=O)N1CCN(C(=O)c2n[nH]c(=O)c3ccccc23)CC1", "Potency": "inconclusive: 16.4 µM [activator, single point]"}, {"smiles": "Cc1ccc(S(=O)(=O)Oc2ccc(/C=N/NC(=O)c3cccnc3)cc2)cc1", "Potency": "inactive"}, {"smiles": "O=C(c1ccc(S(=O)(=O)c2ccccc2Cl)c([N+](=O)[O-])c1)N1CCCCCC1", "Potency": "inconclusive: 29.1 µM [activator, partial curve, poor fit]"}, {"smiles": "COc1cc(NC(=O)CCNC(=O)Cn2cnc3sc4c(c3c2=O)CCCC4)cc(OC)c1OC", "Potency": "inconclusive: 2.91 µM [activator, single point]"}, {"smiles": "Cc1c(C(=O)NCCO)sc2nc3n(c(=O)c12)CCC3", "Potency": "inconclusive: 23.1 µM [activator, single point]"}, {"smiles": "COc1ccc(/C=N/NC(=O)c2cccc(O)c2)cc1Cn1nc(C)c([N+](=O)[O-])c1C", "Potency": "inconclusive: 29.1 µM [activator, single point]"}, {"smiles": "Cc1ccc(-n2[nH]c(C)c(C=Nc3ccc(S(=O)(=O)Nc4nccs4)cc3)c2=O)cc1C", "Potency": "inactive"}, {"smiles": "c1ccc(-c2csc3ncnc(N4CCc5ccccc5C4)c23)cc1", "Potency": "inconclusive: 6.51 µM [activator, partial curve]"}, {"smiles": "COc1ccc(/C=C2\\CN(Cc3ccccc3)C/C(=C\\c3ccc(OC)cc3OC)C2=O)c(OC)c1", "Potency": "inconclusive: 29.1 µM [activator, single point]"}, {"smiles": "CCOc1ccc(NC(=S)Nc2ccc(Br)cc2Cl)cc1", "Potency": "inconclusive: 16.4 µM [activator, single point]"}, {"smiles": "OC(COC(c1ccc(Cl)cc1)c1ccc(Cl)cc1)CN1CCN(c2ccccn2)CC1", "note": "(stereo not given)", "Potency": "inconclusive: 32.6 µM [activator, partial curve, poor fit]"}, {"smiles": "N#CCc1c(C#N)c(N)nc(N2CCN(S(=O)(=O)c3ccccc3)CC2)c1C#N", "Potency": "inactive"}, {"smiles": "CCc1cc2c(=O)c(-c3nc4ccccc4n3C)c(C)oc2c(CN2CCN(CCO)CC2)c1O", "Potency": "inconclusive: 20.6 µM [activator, partial curve, poor fit]"}, {"smiles": "C=CCn1c(=S)[nH]c2cc(-c3ccccc3)sc2c1=O", "Potency": "inactive"}, {"smiles": "COc1ccc(CCN2C(=O)C(Oc3ccccc3C)C2c2ccc3c(c2)OCO3)cc1", "note": "(stereo not given)", "Potency": "inactive"}, {"smiles": "CCOC(=O)c1ccc(NC(=O)Cn2ccc([N+](=O)[O-])n2)cc1", "Potency": "inactive"}, {"smiles": "COc1cccc(-c2nnc(NC(=O)c3ccc(S(=O)(=O)N(CC(C)C)CC(C)C)cc3)o2)c1", "Potency": "inconclusive: 29.1 µM [activator, single point]"}, {"smiles": "COc1ccc(NCC(=O)NN=C2CCS(=O)(=O)c3ccc(F)cc32)cc1", "Potency": "inconclusive: 29.1 µM [activator, single point]"}, {"smiles": "CCOc1cc(C(=O)Nc2ccc(C)cc2C)ccc1OCC(=O)N1CCCCC1", "Potency": "inactive"}, {"smiles": "Cc1ccc2c(c1)N(C)/C(=C/c1cccc[n+]1CCO)S2", "Potency": "inactive"}, {"smiles": "Cc1ccc(-n2nnnc2Sc2nc([N+](=O)[O-])nn2C)cc1", "Potency": "active: 16.4 µM"}, {"smiles": "CC1=C(C)C(=O)C(N2CCOCC2)=CC1=O", "Potency": "inactive"}, {"smiles": "COc1cccc(CCC(=O)N2CCC(n3nccc3NC(=O)C3CCOC3)CC2)c1", "note": "(stereo not given)", "Potency": "inconclusive: 23.1 µM [activator, single point]"}, {"smiles": "O=C(COc1ccccc1)Nc1ccc(CN2CCCCC2)cc1", "Potency": "inconclusive: 6.31 µM [activator, single point]"}, {"smiles": "Cc1cc(C)c(C(CC(=O)c2cccs2)C(C#N)C#N)c(C)c1", "note": "(stereo not given)", "Potency": "inconclusive: 23.1 µM [activator, single point]"}, {"smiles": "Cc1ccc(/C=C(/NC(=O)c2ccccc2)C(=O)NC(Cc2c[nH]c3ccccc23)C(=O)O)cc1", "note": "(stereo not given)", "Potency": "inactive"}, {"smiles": "CC1CN(S(=O)(=O)c2cccc(C(=O)N(CCc3ccccc3)Cc3ccccc3)c2)CC(C)O1", "note": "(stereo not given)", "Potency": "inconclusive: 16.4 µM [activator, single point]"}, {"smiles": "Cc1ccc(NC(=O)C(C)OC(=O)c2ccc(Cl)nc2)cc1S(=O)(=O)N1CCOCC1", "note": "(stereo not given)", "Potency": "inconclusive: 3.66 µM [activator, partial curve, poor fit]"}, {"smiles": "Cc1ccc(OCC(=O)NNC(=O)Cn2c(=O)cnc3ccccc32)cc1", "Potency": "inconclusive: 5.8 µM [activator, full curve, poor fit]"}, {"smiles": "COc1cccc(C(=O)Nc2cccc(C(=O)N3CCOCC3)c2)c1", "Potency": "inactive"}, {"smiles": "COc1ccc(-c2cc(-c3cccs3)nc(OC)c2C#N)cc1OC", "Potency": "inconclusive: 29.1 µM [activator, single point]"}, {"smiles": "COc1ccc(CCNC(=O)CN(c2cccc([N+](=O)[O-])c2)S(C)(=O)=O)cc1", "Potency": "inactive"}, {"smiles": "Cc1cc2[nH]c3c(c[n+](C)c4ccccc34)c2cc1C", "Potency": "inconclusive: 25.9 µM [activator, single point]"}, {"smiles": "CCOC(=O)/C(=C\\c1ccc([N+](=O)[O-])cc1)C(=O)c1cc(C(C)=O)c(Nc2ccccc2)s1", "Potency": "inconclusive: 4.11 µM [activator, full curve]"}, {"smiles": "Cn1c(-c2sccc2OCc2ccc(Cl)cc2Cl)n[nH]c1=S", "Potency": "inactive"}, {"smiles": "Nc1sc2c(c1C(=O)NCCc1ccccc1)CCC2", "Potency": "inactive"}, {"smiles": "O=C(Cn1cc(COc2c(Br)cc(F)cc2Br)nn1)c1ccc(O)cc1", "Potency": "inconclusive: 8.2 µM [activator, single point]"}, {"smiles": "CN(Cc1ccc(OCC(O)CN(C)Cc2ccccc2)cc1)Cc1nccn1C", "note": "(stereo not given)", "Potency": "inactive"}, {"smiles": "COc1ccc(F)cc1C(=O)C1CCCN(C(=O)c2ccccc2N(C)C)C1", "note": "(stereo not given)", "Potency": "inconclusive: 1.46 µM [activator, partial curve, poor fit]"}, {"smiles": "Cc1cccn2c(=O)c3cc(C#N)c(=NC(=O)c4cccs4)n(CC(C)C)c3nc12", "Potency": "inconclusive: 2.06 µM [activator, partial curve, poor fit]"}, {"smiles": "CC1C(=O)C(C)C(c2cc(Cl)ccc2O)NC1c1cc(Cl)ccc1O", "note": "(stereo not given)", "Potency": "inconclusive: 25.9 µM [activator, single point]"}, {"smiles": "COc1ccc(-c2cc(C(F)(F)F)n3nc(C(=O)NCCCn4ccnc4)cc3n2)cc1", "Potency": "inconclusive: 18.4 µM [activator, single point]"}, {"smiles": "O=C(NCc1ccco1)C1CCCN1C(=O)Nc1ccc(Br)cc1", "note": "(stereo not given)", "Potency": "inactive"}, {"smiles": "CCN(Cc1nc(-c2ccc(OC)cc2)no1)C(=O)c1ccoc1C", "Potency": "inactive"}, {"smiles": "COc1cccc(NC2c3ccccc3C(=O)N2Cc2ccccc2Cl)c1", "note": "(stereo not given)", "Potency": "active: 20.6 µM"}, {"smiles": "Cc1nn(C)c(Cl)c1CN1CCN(C2CCCCC2)C(CCO)C1", "note": "(stereo not given)", "Potency": "inactive"}, {"smiles": "Cc1ccc(C)c(NC(=O)C(=O)NCc2ccccn2)c1", "Potency": "inconclusive: 0.0041 µM [activator, full curve, poor fit]"}, {"smiles": "CCCN(CCC)CCNC(=O)c1cc2c(-c3ccc(Cl)cc3)nn(C)c2s1", "Potency": "inconclusive: 29.1 µM [activator, single point]"}, {"smiles": "CC1(C)Cc2c(C#N)c(N3CCN(C(=O)c4ccccc4Cl)CC3)nc(-c3ccco3)c2CS1", "Potency": "active: 9.2 µM"}, {"smiles": "CC(=O)c1ccccc1NC(=O)CN1C(=O)CS/C1=C\\c1nc(-c2ccc(C)cc2)cs1", "Potency": "inactive"}, {"smiles": "CCCCCCCCCCCCCCCC[n+]1ccc(C(N)=O)cc1", "Potency": "inconclusive: 18.4 µM [activator, single point]"}, {"smiles": "O=C(Cc1cccs1)N1CCN=C1SCc1ccccc1F", "Potency": "inconclusive: 6.51 µM [activator, partial curve, poor fit]"}, {"smiles": "N#Cc1cc(C#N)c(N2CCN(c3cccc(Cl)n3)CC2)nc1N", "Potency": "inactive"}, {"smiles": "O=C(c1ccco1)N1CCN(c2ncnc3scc(-c4ccccc4)c23)CC1", "re-replication activation": "inactive: 3.44% [at 9.22 µM]"}, {"smiles": "O=Cc1ccccc1C=O", "Potency": "inconclusive: 10.6 µM [activator, partial curve]"}, {"smiles": "CCOC(=O)C1=C(C)NC(C)=C(C(=O)OCC)C1/C=C/c1ccccc1OC", "Potency": "active: 23.1 µM"}, {"smiles": "COCCNC(=O)C(c1ccc(C)cc1)N(C(=O)CCC(=O)Nc1ccccn1)c1ccccc1C", "note": "(stereo not given)", "Potency": "inactive"}]}]}
